Measured values from paper PMC4260354.
Results are given in words; binding and its absence hold for the method and conditions named. In cells and extracts the contact can be indirect. Here binding means that the protein was enriched with, or labelled near, the bait; the list need not be complete. Sequences can lack the tags named with a protein.

T1: SUVR2-Flag (Arabidopsis) (UniProt Q9FNC7)
T1 sequence: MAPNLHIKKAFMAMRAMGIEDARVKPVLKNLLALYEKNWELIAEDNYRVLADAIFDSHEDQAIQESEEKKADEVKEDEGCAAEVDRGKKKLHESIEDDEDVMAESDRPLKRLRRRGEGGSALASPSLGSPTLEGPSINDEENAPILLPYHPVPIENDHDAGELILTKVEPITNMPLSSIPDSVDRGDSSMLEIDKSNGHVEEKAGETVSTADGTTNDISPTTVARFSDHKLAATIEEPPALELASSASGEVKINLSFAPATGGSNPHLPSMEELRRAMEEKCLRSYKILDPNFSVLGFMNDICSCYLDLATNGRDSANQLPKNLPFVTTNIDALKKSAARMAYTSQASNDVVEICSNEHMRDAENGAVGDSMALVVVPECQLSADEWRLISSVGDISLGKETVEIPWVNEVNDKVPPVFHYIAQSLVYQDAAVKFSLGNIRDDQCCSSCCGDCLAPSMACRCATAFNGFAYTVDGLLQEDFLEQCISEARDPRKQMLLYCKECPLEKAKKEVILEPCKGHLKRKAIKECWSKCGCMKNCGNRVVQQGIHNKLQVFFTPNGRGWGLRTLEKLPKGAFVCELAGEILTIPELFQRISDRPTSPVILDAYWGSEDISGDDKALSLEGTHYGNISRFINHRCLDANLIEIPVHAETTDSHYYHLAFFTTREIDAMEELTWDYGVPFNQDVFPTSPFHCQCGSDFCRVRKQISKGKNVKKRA


Biological target: T1, SUVR2-Flag (Arabidopsis)
Assay: affinity purification with mass spectrometry; protein extracts of flower tissue of transgenic plants; anti-Flag M1 agarose, eluted with 3x Flag peptides, SDS-PAGE, silver staining, in-gel trypsin digestion, mass spectrometry; wild-type control

Binder | binding
SUVR1 (protein, UniProt Q946J2 1-734) MAPNLRIKKACDAMKLLGISETKTRAFLRKLLKTYENNWDFIEEDAYKVLLDAIFDEADAQSTEKNKKEEEKKKKEEEKKSRSVATSRGRRKAPEPLVQDEEDDMDEDEFPLKRRLRSRRGRASSSSSSSSSYNNEDLKTQPEEEDEDDGVTELPPLKRYVRRNGERGLAMTVYNNASPSSSSRLSMEPEEVPPMVLLPAHPMETKVSEASALVILNDEPNIDHKPVISDTGNCSAPMLEMGKSNIHVQEWDWETKDILNDTTAMDVSPSSAIGESSEHKVAAASVELASSTSGEAKICLSFAPATGETTNLHLPSMEDLRRAMEEKCLKSYKIVHPEFSVLGFMKDMCSCYIDLAKNSTSQLLETETVCDMSKAGDESGAVGISMPLVVVPECEISGDGWKAISNMKDITAGEENVEIPWVNEINEKVPSRFRYMPHSFVFQDAPVIFSLSSFSDEQSCSTSCIEDCLASEMSCNCAIGVDNGFAYTLDGLLKEEFLEARISEARDQRKQVLRFCEECPLERAKKVEILEPCKGHLKRGAIKECWFKCGCTKRCGNRVVQRGMHNKLQVFFTPNGKGWGLRTLEKLPKGAFICEYIGEILTIPELYQRSFEDKPTLPVILDAHWGSEERLEGDKALCLDGMFYGNISRFLNHRCLDANLIEIPVQVETPDQHYYHLAFFTTRDIEAMEELAWDYGIDFNDNDSLMKPFDCLCGSRFCRNKKRSTKTMQILNKA | binds
CHR27 (protein, UniProt Q9LHE4 1-1047) MDSAIEISSGSDSDDEVPPQPVWPQTRTRMDPTWLSRRPLPTVDSHARAEHTNQAPPNGASSDTSRPGVSKPFTGNGNTVNSRISSGSGADYVRLSSEQALKRTLPPSFNSPPLPARSGTNNISNASGSRVGVDYERPLSQQALKRTLPPSFNPPPLPSRSGTNNIRNAGGSRFGADYSHPAVSAVGNKSTFGDHYSGAHAEIGIQRGVNGVRILPPSLTHGTSASVLHHAGSSDPMHRFGGGEDRNPDNDERLVYQAALQVLNQPMTESDLPPGTLSVPLMRHQKIALAWMFQKETSSFNCPGGILADDQGLGKTVSTIALILKQKIVSQLKSESSCKQETEALVLDADDESDNAKHESGSHVKPELKVSSNSETSVLSACGNDENDSSDMEKAEDEEANSSTRAFQWKRPAAGTLIVCPASVVRQWARELDEKVSEESKLSVLVYHGSNRTKDPNELAEYDVVVTTYAIVTNEAPNKFLVDEDENDEKNTDRYGLASGFSNNKKRKVVVGASKKSKRRGRKSTNDTSSEPDCGPLGKVGWFRIVLDEAQTIKNYRTQMARSCCTLRAKRRWCLSGTPIQNTIDDLYSYFRFLRYDPYAVYKSFYSTIKVPISRNSCQGYKKLQAVLRAIMLRRTKGTLLDGKPIINLPPKVVNLSQVDFSVAERSFYKKLEADSRSQFKAYADAGTLSQNYANILLLLLRLRQACDHPQLVKRYNSDPVGKVSEAAVRRLPREARSRLINRLESSSAICYECNEPPEKPVVTLCGHIFCYECVLEYITGDENTCPVPRCKQQLARDVVFSESSLRNCTSDDSGCSSSHDNGLDRSVFQKRDFCSSKIKAVLDILQSLSQPDSPNSAQHGQMPSSSRPYDDDDVTIVEPMRLHSSSPSQGAVKTIIFSQWTGMLDLVELRILESGIEFRRLDGTMSLAARDRAVKEFSKKPDVKVMLMSLKAGNLGLNMVAACHVILLDLWWNPTTEDQAIDRAHRIGQTRPVTVTRITIKDTVEDRILKLQEEKRTMVASAFGEEHGGSSATRLTVDDLKYLFMV | binds

The remaining lines, values ahead:

binding | Binder
binds | CHR28 (protein, UniProt Q94BR5 1-981) MDSAIDISSDSDVEIQETRTRPQHPPRIAEGSHRRDLSTLRPHFLSGSSSGANGHTKTGLTNLDSRNGFESKPLPRAEHHTHIPGNGSIVTSRIPNISVGDYEKFSSQQAFKRTHPPTFSRPPFPPRPDIGTSNGNASHFRGGAHDDLGMGRVTNGTRILPPSVAHGTSASPSHFNGLSDPMHRNGIGEERNSENDERLIYQAALQELNQPKSEVDLPAGLLSVPLMKHQKIALAWMFQKETNSLHCMGGILADDQGLGKTVSTIALILKQMHEAKLKSKNSGNQEAEALDLDADDESENAFEKPESKASNGSGVNGDSGIKKAKGEEASTSTRKFNRKRPAAGTLIVCPASVVRQWARELDEKVTDEAKLSVLIYHGGNRTKDPIELAKYDVVMTTYAIVSNEVPKQPLVDDDENDEKNSEKYGLASGFSINKKRKNVVGTTKKSKKKKGNNNAGDSSDPDSGTLAKVGWFRVVLDEAQTIKNHRTQVARACCGLRAKRRWCLSGTPIQNTIDDLYSYFRFLKYDPYAVYKSFCHQIKGPISRNSLQGYKKLQAVLRAIMLRRTKGTLLDGQPIINLPPKTINLSQVDFSVEERSFYVKLESDSRSQFKAYAAAGTLNQNYANILLMLLRLRQACDHPQLVKRYNSDSVGKVSEEAVKKLPKEDLVSLLSRLESSPICCVCHDPPEDPVVTLCGHIFCYQCVSDYITGDEDTCPAPRCREQLAHDVVFSKSTLRSCVADDLGCSSSEDNSHDKSVFQNGEFSSSKIKAVLDILQSLSNQGTSNSTQNGQMASSSQQPNDDDDDDDDDVTIVEKTSLKSTPSNGGPIKTIIFSQWTGMLDLVELSLIENSIEFRRLDGTMSLIARDRAVKEFSNDPDVKVMIMSLKAGNLGLNMIAACHVILLDLWWNPTTEDQAIDRAHRIGQTRPVTVTRITIKNTVEDRILALQEEKRKMVASAFGEDHGGSSATRLTVDDLKYLFMV
binds | CHR19/ETL1 (protein, UniProt Q9ZUL5 1-763) MKRDFDEISEEEWSQHSFNASRVLKRPRTPKKTRAATNPTPSIESFAFRRPSTAMTIESNSSDGDCVEIEDLGDSDSDVKIVNGEDLLLEDEEEVEETKVVMRAARVGRRFVIEDEEASDDDDDEAESSASEDEFGGGGGGSGGRRGEDEDVVGKALQKCAKISADLRKELYGTSSGVTDRYSEVETSTVRIVTQNDIDDACKAEDSDFQPILKPYQLVGVNFLLLLYKKGIEGAILADEMGLGKTIQAITYLTLLSRLNNDPGPHLVVCPASVLENWERELRKWCPSFTVLQYHGAARAAYSRELNSLSKAGKPPPFNVLLVCYSLFERHSEQQKDDRKVLKRWRWSCVLMDEAHALKDKNSYRWKNLMSVARNANQRLMLTGTPLQNDLHELWSLLEFMLPDIFTTENVDLKKLLNAEDTELITRMKSILGPFILRRLKSDVMQQLVPKIQRVEYVLMERKQEDAYKEAIEEYRAASQARLVKLSSKSLNSLAKALPKRQISNYFTQFRKIANHPLLIRRIYSDEDVIRIARKLHPIGAFGFECSLDRVIEEVKGFNDFRIHQLLFQYGVNDTKGTLSDKHVMLSAKCRTLAELLPSMKKSGHRVLIFSQWTSMLDILEWTLDVIGVTYRRLDGSTQVTDRQTIVDTFNNDKSIFACLLSTRAGGQGLNLTGADTVIIHDMDFNPQIDRQAEDRCHRIGQTKPVTIFRLVTKSTVDENIYEIAKRKLVLDAAVLESGVHVDDNGDTPEKTMGEILASLLMG
